Laboratory results as given in the supplement of paper PMC11264405.

Assays:
Assay in all cases: minimum inhibitory concentration
linezolid = compound: CC(=O)NC[C@H]1CN(c2ccc(N3CCOCC3)c(F)c2)C(=O)O1 [linezolid]
clindamycin = compound: CCC[C@@H]1C[C@@H](C(=O)N[C@@H]([C@H]2O[C@H](SC)[C@H](O)[C@@H](O)[C@H]2O)[C@H](C)Cl)N(C)C1 [clindamycin]
fidaxomicin = compound: CCc1c(Cl)c(O)c(Cl)c(O)c1C(=O)O[C@H]1[C@H](O)[C@H](OC)[C@H](OC/C2=C\C=C\C[C@H](O)/C(C)=C/[C@H](CC)[C@@H](O[C@@H]3OC(C)(C)[C@@H](OC(=O)C(C)C)[C@H](O)[C@@H]3O)/C(C)=C/C(C)=C/C[C@@H]([C@@H](C)O)OC2=O)O[C@@H]1C [fidaxomicin]
tigecycline = compound: CN(C)c1cc(NC(=O)CNC(C)(C)C)c(O)c2c1C[C@H]1C[C@H]3[C@H](N(C)C)C(O)=C(C(N)=O)C(=O)[C@@]3(O)C(O)=C1C2=O [tigecycline]
vancomycin = compound: CN[C@H](CC(C)C)C(=O)N[C@H]1C(=O)N[C@@H](CC(N)=O)C(=O)N[C@H]2C(=O)N[C@H]3C(=O)N[C@H](C(=O)N[C@H](C(=O)O)c4cc(O)cc(O)c4-c4cc3ccc4O)[C@H](O)c3ccc(c(Cl)c3)Oc3cc2cc(c3O[C@@H]2O[C@H](CO)[C@@H](O)[C@H](O)[C@H]2O[C@H]2C[C@](C)(N)[C@H](O)[C@H](C)O2)Oc2ccc(cc2Cl)[C@H]1O [vancomycin]
rifampicin = compound: CO[C@H]1/C=C/O[C@@]2(C)Oc3c(C)c(O)c4c(O)c(c(/C=N/N5CCN(C)CC5)c(O)c4c3C2=O)NC(=O)/C(C)=C\C=C\[C@H](C)[C@H](O)[C@@H](C)[C@@H](O)[C@@H](C)[C@H](OC(C)=O)[C@@H]1C [rifampicin]
imipenem = compound: C[C@@H](O)[C@H]1C(=O)N2C(C(=O)O)=C(SCCNC=N)C[C@H]12 [imipenem]
meropenem = compound: C[C@@H](O)[C@H]1C(=O)N2C(C(=O)O)=C(S[C@@H]3CN[C@H](C(=O)N(C)C)C3)[C@H](C)[C@H]12 [meropenem]
metronidazole = compound: Cc1ncc([N+](=O)[O-])n1CCO [metronidazole]

| Test System | minimum inhibitory concentration (linezolid) | minimum inhibitory concentration (clindamycin) | minimum inhibitory concentration (fidaxomicin) | minimum inhibitory concentration (tigecycline) | minimum inhibitory concentration (vancomycin) | minimum inhibitory concentration (rifampicin) | minimum inhibitory concentration (imipenem) | minimum inhibitory concentration (meropenem) | minimum inhibitory concentration (metronidazole) |
| --- | --- | --- | --- | --- | --- | --- | --- | --- | --- |
| Clostridioides difficile PCR ribotype 078 isolate #371 (European region: East, country: Poland, isolate source: Animal, ribotype: 078) | 2 µg/mL | 4 µg/mL | 0.015 µg/mL | < 0.03 µg/mL | 1 µg/mL | < 0.001 µg/mL | 2 µg/mL | 2 µg/mL | < 0.125 µg/mL |
| Clostridioides difficile PCR ribotype 078 isolate #372 (European region: East, country: Poland, isolate source: Animal, ribotype: 078) | 2 µg/mL | 2 µg/mL | 0.06 µg/mL | < 0.03 µg/mL | 1 µg/mL | < 0.001 µg/mL | 2 µg/mL | 4 µg/mL | 0.25 µg/mL |
| Clostridioides difficile PCR ribotype 078 isolate #373 (European region: East, country: Poland, isolate source: Animal, ribotype: 078) | 4 µg/mL | 2 µg/mL | 0.015 µg/mL | 0.06 µg/mL | 0.5 µg/mL | < 0.001 µg/mL | 4 µg/mL | 4 µg/mL | 0.25 µg/mL |
| Clostridioides difficile PCR ribotype 081 isolate #374 (European region: West, country: Netherlands, isolate source: Animal, ribotype: 081) | 2 µg/mL | 16 µg/mL | 0.004 µg/mL | < 0.03 µg/mL | 1 µg/mL | < 0.001 µg/mL | 1 µg/mL | 2 µg/mL | 0.25 µg/mL |
| Clostridioides difficile PCR ribotype 081 isolate #375 (European region: East, country: Poland, isolate source: Animal, ribotype: 081) | 2 µg/mL | 16 µg/mL | 0.015 µg/mL | 0.06 µg/mL | 0.5 µg/mL | < 0.001 µg/mL | 2 µg/mL | 2 µg/mL | 0.25 µg/mL |
| Clostridioides difficile PCR ribotype 081 isolate #376 (European region: East, country: Poland, isolate source: Animal, ribotype: 081) | 2 µg/mL | 8 µg/mL | 0.008 µg/mL | < 0.03 µg/mL | 0.5 µg/mL | < 0.001 µg/mL | 2 µg/mL | 2 µg/mL | 0.25 µg/mL |
| Clostridioides difficile PCR ribotype 085 isolate #195 (European region: East, country: Romania, isolate source: Human, ribotype: 085) | 2 µg/mL | > 128 µg/mL | 0.03 µg/mL | 0.06 µg/mL | 0.5 µg/mL | > 32 µg/mL | 8 µg/mL | 4 µg/mL | 0.5 µg/mL |
| Clostridioides difficile PCR ribotype 087 isolate #196 (European region: South, country: Italy, isolate source: Human, ribotype: 087) | 2 µg/mL | 16 µg/mL | 0.015 µg/mL | 0.06 µg/mL | 1 µg/mL | < 0.001 µg/mL | 4 µg/mL | 2 µg/mL | < 0.125 µg/mL |
| Clostridioides difficile PCR ribotype 087 isolate #377 (European region: West, country: Netherlands, isolate source: Animal, ribotype: 087) | 2 µg/mL | 16 µg/mL | 0.015 µg/mL | < 0.03 µg/mL | 1 µg/mL | < 0.001 µg/mL | 1 µg/mL | 4 µg/mL | < 0.125 µg/mL |
| Clostridioides difficile PCR ribotype 088 isolate #197 (European region: South, country: Spain, isolate source: Human, ribotype: 088) | 2 µg/mL | 2 µg/mL | 0.06 µg/mL | 0.06 µg/mL | 0.5 µg/mL | < 0.001 µg/mL | 8 µg/mL | 4 µg/mL | 0.25 µg/mL |
| Clostridioides difficile PCR ribotype 090 isolate #199 (European region: South, country: Italy, isolate source: Human, ribotype: 090) | 2 µg/mL | 8 µg/mL | 0.03 µg/mL | 0.06 µg/mL | 1 µg/mL | 0.06 µg/mL | 1 µg/mL | 2 µg/mL | < 0.125 µg/mL |
| Clostridioides difficile PCR ribotype 101 isolate #200 (European region: North, country: UK, isolate source: Human, ribotype: 101) | 2 µg/mL | 8 µg/mL | 0.06 µg/mL | < 0.03 µg/mL | 0.5 µg/mL | < 0.001 µg/mL | 2 µg/mL | 2 µg/mL | 0.25 µg/mL |
| Clostridioides difficile PCR ribotype 103 isolate #201 (European region: North, country: UK, isolate source: Human, ribotype: 103) | 2 µg/mL | 1 µg/mL | 0.03 µg/mL | < 0.03 µg/mL | 0.5 µg/mL | < 0.001 µg/mL | 4 µg/mL | 2 µg/mL | < 0.125 µg/mL |
| Clostridioides difficile PCR ribotype 106 isolate #202 (European region: West, country: France, isolate source: Human, ribotype: 106) | 1 µg/mL | 8 µg/mL | 0.015 µg/mL | < 0.03 µg/mL | 0.5 µg/mL | < 0.001 µg/mL | 4 µg/mL | 4 µg/mL | 0.25 µg/mL |
| Clostridioides difficile PCR ribotype 106 isolate #203 (European region: West, country: France, isolate source: Human, ribotype: 106) | 2 µg/mL | 32 µg/mL | 0.06 µg/mL | < 0.03 µg/mL | 0.5 µg/mL | < 0.001 µg/mL | 2 µg/mL | 4 µg/mL | < 0.125 µg/mL |
| Clostridioides difficile PCR ribotype 106 isolate #204 (European region: South, country: Spain, isolate source: Human, ribotype: 106) | 2 µg/mL | 1 µg/mL | 0.06 µg/mL | 0.06 µg/mL | 0.5 µg/mL | < 0.001 µg/mL | 4 µg/mL | 2 µg/mL | 0.25 µg/mL |
| Clostridioides difficile PCR ribotype 106 isolate #205 (European region: South, country: Spain, isolate source: Human, ribotype: 106) | 2 µg/mL | 8 µg/mL | 0.06 µg/mL | 0.06 µg/mL | 0.5 µg/mL | < 0.001 µg/mL | 4 µg/mL | 4 µg/mL | 0.25 µg/mL |
| Clostridioides difficile PCR ribotype 106 isolate #206 (European region: South, country: Spain, isolate source: Human, ribotype: 106) | 2 µg/mL | 8 µg/mL | 0.06 µg/mL | 0.06 µg/mL | 1 µg/mL | < 0.001 µg/mL | 4 µg/mL | 4 µg/mL | 0.25 µg/mL |
| Clostridioides difficile PCR ribotype 106 isolate #207 (European region: South, country: Spain, isolate source: Human, ribotype: 106) | 2 µg/mL | 2 µg/mL | 0.06 µg/mL | 0.06 µg/mL | 1 µg/mL | < 0.001 µg/mL | 4 µg/mL | 4 µg/mL | 0.25 µg/mL |
| Clostridioides difficile PCR ribotype 106 isolate #208 (European region: South, country: Spain, isolate source: Human, ribotype: 106) | 2 µg/mL | 8 µg/mL | 0.06 µg/mL | < 0.03 µg/mL | 1 µg/mL | < 0.001 µg/mL | 4 µg/mL | 4 µg/mL | 0.25 µg/mL |
| Clostridioides difficile PCR ribotype 106 isolate #209 (European region: South, country: Spain, isolate source: Human, ribotype: 106) | 2 µg/mL | 8 µg/mL | 0.03 µg/mL | 0.06 µg/mL | 0.5 µg/mL | < 0.001 µg/mL | 4 µg/mL | 4 µg/mL | < 0.125 µg/mL |
| Clostridioides difficile PCR ribotype 115 isolate #210 (European region: North, country: UK, isolate source: Human, ribotype: 115) | 1 µg/mL | 4 µg/mL | 0.125 µg/mL | < 0.03 µg/mL | 0.5 µg/mL | < 0.001 µg/mL | 2 µg/mL | 4 µg/mL | < 0.125 µg/mL |
| Clostridioides difficile PCR ribotype 115 isolate #211 (European region: East, country: Romania, isolate source: Human, ribotype: 115) | 2 µg/mL | 0.5 µg/mL | 0.015 µg/mL | < 0.03 µg/mL | 0.5 µg/mL | 0.008 µg/mL | 4 µg/mL | 2 µg/mL | 0.25 µg/mL |
| Clostridioides difficile PCR ribotype 126 isolate #212 (European region: South, country: Spain, isolate source: Human, ribotype: 126) | 2 µg/mL | 1 µg/mL | 0.06 µg/mL | 0.06 µg/mL | 1 µg/mL | < 0.001 µg/mL | 4 µg/mL | 2 µg/mL | 0.25 µg/mL |
| Clostridioides difficile PCR ribotype 126 isolate #213 (European region: South, country: Italy, isolate source: Human, ribotype: 126) | 2 µg/mL | > 128 µg/mL | 0.03 µg/mL | < 0.03 µg/mL | 1 µg/mL | < 0.001 µg/mL | 8 µg/mL | 2 µg/mL | 0.25 µg/mL |
| Clostridioides difficile PCR ribotype 126 isolate #214 (European region: South, country: Italy, isolate source: Human, ribotype: 126) | 8 µg/mL | > 128 µg/mL | 0.03 µg/mL | < 0.03 µg/mL | 0.5 µg/mL | < 0.001 µg/mL | 2 µg/mL | 2 µg/mL | < 0.125 µg/mL |

For reference, part of the list above:

| Test System | minimum inhibitory concentration (linezolid) | minimum inhibitory concentration (clindamycin) | minimum inhibitory concentration (fidaxomicin) | minimum inhibitory concentration (tigecycline) | minimum inhibitory concentration (vancomycin) | minimum inhibitory concentration (rifampicin) | minimum inhibitory concentration (imipenem) | minimum inhibitory concentration (meropenem) | minimum inhibitory concentration (metronidazole) |
| --- | --- | --- | --- | --- | --- | --- | --- | --- | --- |
| Clostridioides difficile PCR ribotype 090 isolate #199 (European region: South, country: Italy, isolate source: Human, ribotype: 090) | 2 µg/mL | 8 µg/mL | 0.03 µg/mL | 0.06 µg/mL | 1 µg/mL | 0.06 µg/mL | 1 µg/mL | 2 µg/mL | < 0.125 µg/mL |
| Clostridioides difficile PCR ribotype 101 isolate #200 (European region: North, country: UK, isolate source: Human, ribotype: 101) | 2 µg/mL | 8 µg/mL | 0.06 µg/mL | < 0.03 µg/mL | 0.5 µg/mL | < 0.001 µg/mL | 2 µg/mL | 2 µg/mL | 0.25 µg/mL |
| Clostridioides difficile PCR ribotype 103 isolate #201 (European region: North, country: UK, isolate source: Human, ribotype: 103) | 2 µg/mL | 1 µg/mL | 0.03 µg/mL | < 0.03 µg/mL | 0.5 µg/mL | < 0.001 µg/mL | 4 µg/mL | 2 µg/mL | < 0.125 µg/mL |
| Clostridioides difficile PCR ribotype 106 isolate #202 (European region: West, country: France, isolate source: Human, ribotype: 106) | 1 µg/mL | 8 µg/mL | 0.015 µg/mL | < 0.03 µg/mL | 0.5 µg/mL | < 0.001 µg/mL | 4 µg/mL | 4 µg/mL | 0.25 µg/mL |
| Clostridioides difficile PCR ribotype 106 isolate #203 (European region: West, country: France, isolate source: Human, ribotype: 106) | 2 µg/mL | 32 µg/mL | 0.06 µg/mL | < 0.03 µg/mL | 0.5 µg/mL | < 0.001 µg/mL | 2 µg/mL | 4 µg/mL | < 0.125 µg/mL |
| Clostridioides difficile PCR ribotype 106 isolate #204 (European region: South, country: Spain, isolate source: Human, ribotype: 106) | 2 µg/mL | 1 µg/mL | 0.06 µg/mL | 0.06 µg/mL | 0.5 µg/mL | < 0.001 µg/mL | 4 µg/mL | 2 µg/mL | 0.25 µg/mL |
| Clostridioides difficile PCR ribotype 106 isolate #205 (European region: South, country: Spain, isolate source: Human, ribotype: 106) | 2 µg/mL | 8 µg/mL | 0.06 µg/mL | 0.06 µg/mL | 0.5 µg/mL | < 0.001 µg/mL | 4 µg/mL | 4 µg/mL | 0.25 µg/mL |
| Clostridioides difficile PCR ribotype 106 isolate #206 (European region: South, country: Spain, isolate source: Human, ribotype: 106) | 2 µg/mL | 8 µg/mL | 0.06 µg/mL | 0.06 µg/mL | 1 µg/mL | < 0.001 µg/mL | 4 µg/mL | 4 µg/mL | 0.25 µg/mL |
